The assay addresses GlyT1 transporter (Homo sapiens, UniProt P48067). Briefly: GlyT1 assay: 3H-glycine uptake into SK-N-MC cells (Cytostar-T format). As to conditions: glycine uptake in human SK-N-MC cells endogenously expressing GlyT1; 500 nM glycine, 1% DMSO, signal recorded over 60 min. An excerpt:
Cells expressing either endogenously the GlyT1 transporter like JAR cells (human placental choriocarcinoma cells; e.g. WO 2008/002583) or SK-N-MC cells (human neuroblastoma cells; Depoortere et al., 2005. Neuropsychopharmacology 30:1963-1985) or primary neurons or cells which have been transfected with a plasmid encoding the cDNA of a functional GlyT1 transporter and stably or transiently express GlyT1 (e.g. WO 2006/08200) can be used to monitor glycine uptake in cells. Different protocols for determination of the glycine uptake into the cells described above can be applied in order to identify and rank compounds which interfere with glycine uptake in the selected cell.
Compounds outlined in the examples below were characterized using human SK-N-MC cells (ATCC number HTB-10) endogenously expressing the GlyT1 transporter which is responsible for the uptake of glycine into these cells and the uptake of glycine into these cells is monitored using the Cytostar-T assay format (GE Healthcare, RPNQ0162) which is based on the radioactive glycine taken up by the cells and brought into proximity with the scintillant contained within the base of the plate. […] The uptake is recorded as kinetic and the slope of the measured counts over time is used to calculate IC50. […]
Maximal glycine uptake in every experiment is determined by incubation of SK-N-MC cells with substrate but without inhibitor. […]

Protein sequences, listed by entry. Tags and fused reporters are not part of them.
UniProt P48067, whole entry: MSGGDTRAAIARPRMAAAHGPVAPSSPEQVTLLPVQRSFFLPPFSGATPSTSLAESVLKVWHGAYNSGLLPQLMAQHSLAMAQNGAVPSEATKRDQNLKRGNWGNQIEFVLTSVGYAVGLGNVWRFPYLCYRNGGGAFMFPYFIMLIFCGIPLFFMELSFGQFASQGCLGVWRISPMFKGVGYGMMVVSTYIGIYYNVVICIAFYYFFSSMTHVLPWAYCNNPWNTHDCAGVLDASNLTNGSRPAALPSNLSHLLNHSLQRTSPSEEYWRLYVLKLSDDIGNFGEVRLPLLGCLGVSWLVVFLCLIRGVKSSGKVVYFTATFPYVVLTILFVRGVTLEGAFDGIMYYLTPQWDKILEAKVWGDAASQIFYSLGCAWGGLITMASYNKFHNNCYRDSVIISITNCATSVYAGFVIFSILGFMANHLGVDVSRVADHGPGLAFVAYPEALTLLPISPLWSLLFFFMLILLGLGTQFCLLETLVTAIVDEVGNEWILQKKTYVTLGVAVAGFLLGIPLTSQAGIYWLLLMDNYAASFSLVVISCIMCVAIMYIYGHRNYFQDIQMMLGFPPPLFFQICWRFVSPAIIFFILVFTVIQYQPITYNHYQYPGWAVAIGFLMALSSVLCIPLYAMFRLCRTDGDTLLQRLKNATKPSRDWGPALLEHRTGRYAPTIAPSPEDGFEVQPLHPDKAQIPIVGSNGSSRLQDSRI

This passage reports IC50 results from patent publication US9012489B2, “Phenyl-3-aza-bicyclo[3.1.0]hex-3-yl-methanones and the use thereof as medicament” (Boehringer Ingelheim International GmbH, priority 2011, dated 2015).

The match of structure and compound is tentative.

The term IC50 denotes the concentration that inhibits the measured activity by half. Low values mean inhibition by little substance, high ones a need for much substance.

On to `COC1(c2nc(C34CC3CN(C(=O)c3cc(S(C)(=O)=O)ccc3O[C@@H](C)C(F)(F)F)C4)no2)CC1` (single isomer, unassigned), for which the IC50 came to 700 nM.
